Measured values as given in PubChem BioAssay AID1487 (National Center for Advancing Translational Sciences (NCATS), 2009).
The list shows a part of the results. Further columns of the screen follow, without active or inactive calls. Most of these compounds were active or inconclusive in the main read-out, so they are no random draw. The note in brackets gives the kind of curve behind each potency; many fits are weak.

Assay: qHTS Assay for Modulators of Lamin A Splicing
Details: HeLa LMNA splicing GFP/RFP minigene ratio, 48 h
Procedure, shortened: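 Read-out is the ratio of GFP to DsRed2 object intensity, acquired by 488 nm laser-scanning cytometry on HeLa lamin A-EGFP minigene reporter cells. Compound incubation 48 hrs at 37 °C in Opti-MEM with 2% FBS; DMSO 0.5% final.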

[1] = measured here: RFP viability control channel
[2] = measured here: GFP splicing reporter channel

SMILES | AC50 [1] | AC50 [2]
O=C(CCCC1=NS(=O)(=O)c2ccccc2N1)N1CCN(c2ccc(Cl)cc2)CC1 | 6.31 µM [rising, full curve, poor fit] | 
CC1CN(C(=O)N2c3ccccc3Sc3ccccc32)CC(C)O1 (stereo not drawn) |  | 35.5 µM [falling, partial curve]
O=C(Nc1nc2ccccc2[nH]1)c1ccccc1F | 35.5 µM [falling, single point] | 
CC(=O)Nc1cc(ON=C(C)C)cc([N+](=O)[O-])c1 | 25.1 µM [rising, single point] | 35.5 µM [rising, single point]
Cc1cc(-n2c(C)cc(C(=S)N3CCOCC3)c2C)ccc1Br | 25.1 µM [rising, single point] | 25.1 µM [rising, single point]
Cc1cc(Nc2cccc(C(F)(F)F)c2)nc2ccc(NC(=O)c3cccnc3)cc12 | 28.2 µM [falling, single point] | 31.6 µM [falling, single point]
Cc1ccc(OCC(O)Cn2c(=N)n(Cc3ccccc3)c3ccccc32)cc1 (stereo not drawn) | 31.6 µM [rising, single point] | 
Cc1ccccc1-n1c(SCc2cc(=O)n3ccccc3n2)nc2[nH]ncc2c1=O | 8.91 µM [rising, partial curve] | 
CC(C)C1O/C(=N/C(=O)Nc2ccc(Cl)c(Cl)c2)NC1=O (stereo not drawn) | 35.5 µM [rising, single point] | 20 µM [rising, single point]
CCCCCC(=O)Nc1ccc(-c2csc(C)n2)cc1 | 22.4 µM [rising, single point] | 7.08 µM [rising, partial curve, poor fit]
O=S(=O)(Nc1cccc(-c2ccc(N3CCCC3)nn2)c1)c1cc(F)ccc1F | 5.01 µM [falling, partial curve] | 5.01 µM [falling, full curve]
CC(C)(C)NS(=O)(=O)c1cccc(S(=O)(=O)c2cccc(S(=O)(=O)NC(C)(C)C)c2)c1 | 0.00891 µM [falling, full curve, poor fit] | 
Cc1cc2c(cc1C)NC(c1c(C)n(C)n(-c3ccccc3)c1=O)C1=C(CC(C)(C)CC1=O)N2 (stereo not drawn) | 31.6 µM [rising, single point] | 
O=C(COC(=O)c1cc(=O)c2ccccc2o1)NC1CCCCC1 |  | 0.00794 µM [rising, full curve, poor fit]
Cc1[nH]n(-c2ccccc2)c(=O)c1C(=O)c1ccc([N+](=O)[O-])cc1 | 11.2 µM [falling, partial curve, poor fit] | 35.5 µM [falling, single point]
CCOC(=O)N1CCN(Cc2nc3cc(NC(=O)c4ccc([N+](=O)[O-])cc4)ccc3n2C(C)C)CC1 | 3.55 µM [rising, full curve] | 
Cc1nc(N2CCN(C(=O)COc3ccccc3)CC2)c2c(C)c(C)sc2n1 | 5.01 µM [rising, partial curve] | 
COc1ccc(C2CC(=O)Nc3sc(=N)c4c(N)c(C#N)c(N)nc4c32)cc1OC (stereo not drawn) |  | 11.2 µM [rising, single point]
CC1CC(C)CN(c2ccc(-n3cnnn3)cc2[N+](=O)[O-])C1 (stereo not drawn) | 15.8 µM [falling, single point] | 35.5 µM [falling, single point]
CCCCCCOc1ccc(/C(N)=N/O)cc1 | 12.6 µM [rising, partial curve] | 15.8 µM [rising, partial curve]
O=C(CN1CCN(c2cccc(Cl)n2)CC1)N1CC(O)CO1 (stereo not drawn) |  | 0.00501 µM [rising, full curve, poor fit]
O=C(O)CCCCC1CCSS1 (stereo not drawn) | 35.5 µM [falling, single point] | 35.5 µM [falling, single point]
COCC(=O)O[C@]1(CCN(C)CCCc2nc3ccccc3[nH]2)CCc2cc(F)ccc2[C@@H]1C(C)C | 15.8 µM [falling, partial curve] | 17.8 µM [falling, partial curve]
COc1cc(/C=N/NC(=O)c2ccc(N(C)S(=O)(=O)c3ccccc3)cc2)cc(OC)c1OC | 35.5 µM [rising, single point] | 
COc1ccccc1OCCCn1c(C)c(C#N)c2ccccc21 | 35.5 µM [rising, single point] | 35.5 µM [rising, single point]
O=C(NCc1cccnc1)C1CCN(Cc2cc3ccccc3n2Cc2ccccc2)CC1 | 35.5 µM [falling, single point] | 22.4 µM [falling, single point]
CCN(CC)Cc1cc(Nc2ccnc3cc(Cl)ccc23)ccc1O | 0.1 µM [rising, full curve, poor fit] | 0.002 µM [falling, full curve, poor fit]

Arranged by count of non-hydrogen atoms (largest number first): part of the list above
SMILES | AC50 [1] | AC50 [2]
Cc1cc2c(cc1C)NC(c1c(C)n(C)n(-c3ccccc3)c1=O)C1=C(CC(C)(C)CC1=O)N2 (stereo not drawn) | 31.6 µM [rising, single point] | 
Cc1ccc(OCC(O)Cn2c(=N)n(Cc3ccccc3)c3ccccc32)cc1 (stereo not drawn) | 31.6 µM [rising, single point] | 
Cc1cc(-n2c(C)cc(C(=S)N3CCOCC3)c2C)ccc1Br | 25.1 µM [rising, single point] | 25.1 µM [rising, single point]

The listing continues.

SMILES | AC50 [1] | AC50 [2]
O=C(COc1ccccc1)N1CCN(S(=O)(=O)Cc2ccccc2)CC1 | 0.00891 µM [rising, full curve, poor fit] | 17.8 µM [rising, partial curve]
Cc1oc2c(c(=O)c1C)C(=O)CC(c1ccccc1)C2 (stereo not drawn) | 0.0178 µM [rising, single point] | 
Cc1cc(C(F)F)n2nc(C(=O)Nc3sc4c(c3C(N)=O)CCC4)nc2n1 | 1.12 µM [rising, partial curve] | 
CC(C)c1ccc(NC(=O)CN2C=NS(=O)(=O)c3ccccc32)cc1 | 0.501 µM [falling, full curve] | 
COc1ccc(OC)c(C(=O)C2COC(=O)C2)c1 (stereo not drawn) | 11.2 µM [rising, partial curve] | 
Cc1ccc2nc(SCC(=O)NC3CCCc4ccccc43)[nH]c2c1 (stereo not drawn) | 35.5 µM [rising, single point] | 
CCOc1cc(NC(=O)c2ccccn2)c(OCC)cc1NC(=O)c1cccc(C)c1 | 10 µM [rising, partial curve] | 17.8 µM [rising, partial curve]
COC(=O)c1cc2oc(C)cc2n1Cc1ccc(C)cc1 | 35.5 µM [rising, single point] | 
COc1ccc(C(Nc2ccccn2)c2c(NC(=O)c3ccco3)sc(C)c2C)cc1 (stereo not drawn) | 15.8 µM [rising, partial curve, poor fit] | 
O=C1S/C(=C\c2ccc(N3CCOCC3)o2)C(=O)N1Cc1c(F)cccc1Cl | 12.6 µM [falling, partial curve] | 35.5 µM [falling, single point]
Cc1cc(C)c2nc(NNC(=O)c3ccc(S(=O)(=O)N4CCc5ccccc5C4)cc3)sc2c1 | 2.82 µM [rising, single point] | 
COc1ccc(-c2cc(CNC(=O)CCl)on2)cc1 | 35.5 µM [falling, single point] | 3.55 µM [falling, single point]
Cn1nc(-c2ccc(C(=O)Nc3ccc(OC(F)(F)F)cc3)cc2)c2ccccc2c1=O |  | 3.16 µM [rising, single point]
OC(CNc1ccccc1)COc1ccc(OCC(O)CNc2ccccc2)cc1 (stereo not drawn) |  | 6.31 µM [rising, full curve, poor fit]
COc1cc(/C=C(\C#N)c2ccccn2)ccc1OCC(=O)Nc1c(Cl)cccc1Cl | 11.2 µM [rising, partial curve] | 10 µM [rising, partial curve]
Cc1ccc(-n2c(SCc3ccccc3C)nc3[nH]ncc3c2=O)cc1C | 0.00398 µM [rising, full curve, poor fit] | 
Cc1[nH]n(-c2ccccc2)c(=O)c1/C=N/N(C)c1ccccc1 |  | 17.8 µM [rising, partial curve]
O=c1cc(CN2CCN(C/C=C/c3ccccc3)CC2)c2cc(O)ccc2o1 | 11.2 µM [rising, partial curve] | 6.31 µM [rising, partial curve, poor fit]
O=C(NCc1ccccc1Cl)C(=O)NCC(c1cccs1)S(=O)(=O)c1ccccc1 (stereo not drawn) |  | 35.5 µM [falling, single point]
COc1ccc(Oc2ccc(/C=C/C(=O)c3ccc(O)cc3)cc2[N+](=O)[O-])cc1 | 35.5 µM [falling, single point] | 1.26 µM [rising, full curve, poor fit]
CC(NC(=O)c1cccc2ccccc12)c1ccc2c(c1)CCCC2 (stereo not drawn) | 3.98 µM [rising, single point] | 
CCN(CC)S(=O)(=O)c1ccc(/C=C/C(=O)Nc2ccc(F)cc2F)cc1 | 22.4 µM [rising, partial curve, poor fit] | 
CCOc1ccc(OCc2ccc(C(=O)N3CCOCC3)cc2)cc1 | 31.6 µM [rising, single point] | 
Cc1cccc(-n2ncc(C(=O)Nc3ccc4c(c3)OCO4)c2C2CCN(C(=O)OC(C)(C)C)CC2)c1 | 35.5 µM [rising, single point] | 
CN(C)S(=O)(=O)c1ccc(N2CCCC2)c(C(=O)Nc2nc3ccc(F)cc3s2)c1 | 3.16 µM [rising, partial curve] | 3.55 µM [rising, partial curve]
Cc1ccc(C(=O)OCn2ncc(Cl)c(Cl)c2=O)cc1 | 3.55 µM [falling, full curve] | 3.16 µM [falling, full curve]
CCCCNc1c(C(=O)OCC)c(=O)[nH]c2ccccc12 | 12.6 µM [rising, single point] | 10 µM [rising, partial curve]
